In PubChem BioAssay AID1347075 (National Center for Advancing Translational Sciences (NCATS), 2019):
The campaign covered roughly 400,000 compounds. About 5,500 (1.4%) were called active. Inconclusive means that the source gave no clear call. Such entries were picked first, then a sample of the others. Calls come from the whole dose curve; as a rule, active = well fitted cell-killing curve with a large enough effect; inconclusive = small, poorly fitted or top-dose-only effect, or effect the other way; inactive = flat fitted curve, though single readings scatter. Potencies of inconclusive entries are doubtful fits and often do not repeat.

assay: qHTS assay for MDR1-selective chemotherapeutics: Primary screen using the parental adenocarcinoma cell KB-3-1; conditions: KB-3-1 viability, CellTiter-Glo ATP luminescence, 72 h; activity change, negative = cytotoxic: at 46.1 µM (top of the series); note: nearly all actives have a fitted effect of over 60% in size
Summary of the method: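 72 h, 37 °C compound treatment of KB-3-1 parental cells; CellTiter-Glo added, 10 min, luminescence read. Data corrected against DMSO-only plates and normalized before curve fitting.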
% is set by controls: 0 for no effect and ±100 for the full control effect; potency is the fitted concentration of half-maximal effect.

SMILES	Potency	activity change, negative = cytotoxic
FC(F)(F)c1ccc2c(c1)ncn2C1CCN(Cc2nnnn2C2CCCCC2)CC1	inconclusive: 29.1 µM [cytotoxic, single point]	
COC(=O)C1=C(c2ccc(-c3ccccc3)c(F)c2)C[C@@H]2CC[C@H]1N2C(=O)N1CCOCC1	active: 18.4 µM	
O=C(c1ccccc1F)N1C[C@H]2C[C@@H](C1)c1cccc(=O)n1C2	inconclusive: 0.0046 µM [rising, full curve]	
COC(=O)C1=C(c2ccc(OC(F)(F)F)cc2)C[C@@H]2CC[C@H]1N2C(=O)NCc1cc(C)oc1C(F)(F)F	inconclusive: 29.1 µM [cytotoxic, single point]	
CCCNC(=O)N1[C@H]2CC[C@@H]1C(C(=O)OC)=C(c1ccc(Cl)c(C(F)(F)F)c1)C2	inconclusive: 29.1 µM [cytotoxic, single point]	
Nc1cccc2c1Cc1cc([N+](=O)[O-])ccc1-2	inconclusive: 29.1 µM [cytotoxic, single point]	
ClCCN(CCCl)c1ccc(/C=C/c2ccnc3ccccc23)cc1	inconclusive: 16.4 µM [cytotoxic, single point]	
OC(Cc1ccccc1)(c1ccccc1)C1CN2CCC1CC2 (configuration not stated)	inactive	
Cc1ccc(-c2nc(CN3C(=O)CN=C(c4ccccc4Cl)c4cc(Cl)ccc43)c(C)o2)cc1	inconclusive: 23.1 µM [cytotoxic, single point]	
O=C(Nc1ccc2c(c1)OCCO2)c1cccn(Cc2ccccc2)c1=O	inconclusive: 29.1 µM [cytotoxic, single point]	
Cc1cc2ccccn2c1C(C[N+](=O)[O-])c1c(F)cccc1Cl (configuration not stated)	inconclusive: 29.1 µM [cytotoxic, single point]	
CCC(=NCc1ccco1)c1c(O)n(Cc2ccccc2)c(=O)[nH]c1=O	inconclusive: 29.1 µM [cytotoxic, single point]	
Cc1cc(C)cc(N2C(=O)NC(=O)/C(=C\C=C\c3ccco3)C2=O)c1	inconclusive: 29.1 µM [cytotoxic, single point]	
CN1CCC(O)(c2ccccc2)C2CCCC21 (configuration not stated)	inactive	
O=c1c2ccccc2nc(/C=C\c2ccccc2[N+](=O)[O-])n1-c1ccccc1O	inconclusive: 23.1 µM [cytotoxic, single point]	
Clc1ccc2c(c1)C(c1ccccc1Cl)=NCc1nnc(N3CCN(CCSc4ccccc4)CC3)n1-2	inconclusive: 16.4 µM [cytotoxic, partial curve, poor fit]	
Cc1ccccc1-n1c(O)c(/C=C2/C(c3ccccc3)=Nc3ccccc32)c(=O)[nH]c1=O	active: 2.06 µM	
CCCCCN1C(=O)c2cc(OC)ccc2[C@@]2(C(=O)OCC)Cc3cc(Cl)ccc3[C@@H]12	active: 0.651 µM	
Cc1cccc(Cn2cccc(C(=O)Nc3nnc(C)s3)c2=O)c1	inactive	
O=C(N/N=C/c1c(O)n(C2CCCCC2)c(=S)[nH]c1=O)c1ccccc1	inconclusive: 18.4 µM [cytotoxic, single point]	
O=C(Nc1ccc2ccccc2c1)N1C[C@H]2C[C@@H](C1)c1cccc(=O)n1C2	inactive	

SMILES	Potency	activity change, negative = cytotoxic
CCOC(=O)[C@]12Cc3cc(OC)ccc3[C@H]1N(Cc1ccccc1)C(=O)c1ccccc12	inconclusive: 23.1 µM [cytotoxic, single point]	
O=C(NCC1=C(c2cccc3ccccc23)C[C@@H]2CC[C@H]1N2Cc1ccco1)c1cccs1	inconclusive: 18.4 µM [cytotoxic, single point]	
CCC(=NCCc1ccccc1)c1c(O)n(C)c(=O)n(C)c1=O	inconclusive: 29.1 µM [cytotoxic, single point]	
Cc1cc(/C=C2\C(=O)NC(=O)N(c3ccc(Br)cc3)C2=O)c(C)n1-c1cc(C(=O)O)cc(C(=O)O)c1		inconclusive: -37.4% [cytotoxic]
CN(C)c1ccc(NC(=O)CN2C(=O)CN=C(c3ccccc3)c3cc(Cl)ccc32)cc1	inconclusive: 25.9 µM [cytotoxic, single point]	
CCOC(=O)[C@]12Cc3c(cc(OC)c(OC)c3OC)[C@H]1N(C)C(=O)c1ccccc12	inconclusive: 29.1 µM [cytotoxic, single point]	
Cc1cc(C)c(N=Cc2c(O)[nH]c(=O)[nH]c2=O)c(C)c1	active: 6.51 µM	
COc1cc([C@@H]2c3cc4c(c(O)c3C[C@H]3COC(=O)[C@@H]32)OCO4)cc(OC)c1OC	active: 0.517 µM	
CCC(=NCc1ccco1)c1c(O)n(-c2ccccc2C)c(=O)[nH]c1=O	inactive	
CC(=O)c1cn(CC(=O)NCCc2c[nH]c3ccccc23)c2ccccc12	inconclusive: 18.4 µM [cytotoxic, single point]	
N#Cc1cc2c(nc1SCC(=O)Nc1cccc(C(F)(F)F)c1)C1CCN2CC1	inconclusive: 23.1 µM [cytotoxic, single point]	
Cc1c2ccncc2c(C)c2c1[nH]c1ccccc12	inconclusive: 20.6 µM [cytotoxic, single point]	
CC(=O)c1cccc(OCC(=O)N2CCN(CC(=O)Nc3cccc(F)c3)CC2)c1	inactive	
COC(=O)C1=C(c2ccc(-c3ccccc3)c(F)c2)C[C@@H]2CC[C@H]1N2C(=O)NC1CC1	inconclusive: 29.1 µM [cytotoxic, single point]	
COC(=O)C1=C(C(=O)OC)C2OC1c1cc3ccccc3cc12	inactive	
O=C1NC(=O)N(c2ccccc2)C(=O)/C1=C/C=C/c1ccco1	inconclusive: 29.1 µM [cytotoxic, single point]	
COc1ccc2nc(-c3ccc(CN4CCC(n5c(=O)[nH]c6ccccc65)CC4)cc3)c(-c3ccccc3)nc2c1	inconclusive: 29.1 µM [cytotoxic, single point]	
CC(C)NP(=O)(NC(C)C)OP(=O)(NC(C)C)NC(C)C	inactive	
Nc1c2c(nc3sc4c(c13)CCCCC4)CCCC2	active: 29.1 µM	
Nc1c(C(=O)OCc2ccccc2)c2nc3ccccc3nc2n1Cc1cccs1	inactive	
C=CCn1c(O)c(C(CC)=Nc2ccc(N(CC)CC)cc2)c(=O)[nH]c1=O	active: 23.1 µM	

Filtered by structure: the entries above with a nitro group on carbon
SMILES	Potency	activity change, negative = cytotoxic
Nc1cccc2c1Cc1cc([N+](=O)[O-])ccc1-2	inconclusive: 29.1 µM [cytotoxic, single point]	
Cc1cc2ccccn2c1C(C[N+](=O)[O-])c1c(F)cccc1Cl (configuration not stated)	inconclusive: 29.1 µM [cytotoxic, single point]	
O=c1c2ccccc2nc(/C=C\c2ccccc2[N+](=O)[O-])n1-c1ccccc1O	inconclusive: 23.1 µM [cytotoxic, single point]	
